Reference: the supplement of paper PMC10849652
This is one part of the list.

Chains of the proteins cited; added tags and fusions are not shown. Lines headed by an entry give the natural chain unless they say otherwise; changes in a name come on top.
UniProt O75781: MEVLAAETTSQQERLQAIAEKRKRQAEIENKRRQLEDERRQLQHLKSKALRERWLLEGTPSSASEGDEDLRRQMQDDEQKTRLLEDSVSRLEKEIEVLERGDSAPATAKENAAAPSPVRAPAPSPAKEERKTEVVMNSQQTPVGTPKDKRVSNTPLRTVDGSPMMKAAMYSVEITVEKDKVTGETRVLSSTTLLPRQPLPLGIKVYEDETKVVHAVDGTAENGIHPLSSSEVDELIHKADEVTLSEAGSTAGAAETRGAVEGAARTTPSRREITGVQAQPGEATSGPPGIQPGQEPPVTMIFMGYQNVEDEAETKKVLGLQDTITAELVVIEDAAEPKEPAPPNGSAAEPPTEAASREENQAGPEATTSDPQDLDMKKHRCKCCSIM
UniProt Q9P0S3: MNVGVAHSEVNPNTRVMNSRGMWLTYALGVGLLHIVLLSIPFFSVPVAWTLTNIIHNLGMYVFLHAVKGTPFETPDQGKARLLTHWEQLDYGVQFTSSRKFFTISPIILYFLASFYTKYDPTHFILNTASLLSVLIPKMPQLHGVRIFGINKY
UniProt Q86WC4: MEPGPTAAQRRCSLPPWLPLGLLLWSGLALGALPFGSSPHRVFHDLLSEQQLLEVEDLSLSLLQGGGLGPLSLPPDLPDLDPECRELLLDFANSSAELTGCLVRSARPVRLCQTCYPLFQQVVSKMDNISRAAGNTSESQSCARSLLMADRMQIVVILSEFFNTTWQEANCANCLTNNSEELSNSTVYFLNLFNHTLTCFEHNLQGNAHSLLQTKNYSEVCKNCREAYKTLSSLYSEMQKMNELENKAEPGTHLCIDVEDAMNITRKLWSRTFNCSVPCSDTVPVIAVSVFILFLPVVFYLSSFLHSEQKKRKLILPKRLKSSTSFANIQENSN
UniProt Q9H999: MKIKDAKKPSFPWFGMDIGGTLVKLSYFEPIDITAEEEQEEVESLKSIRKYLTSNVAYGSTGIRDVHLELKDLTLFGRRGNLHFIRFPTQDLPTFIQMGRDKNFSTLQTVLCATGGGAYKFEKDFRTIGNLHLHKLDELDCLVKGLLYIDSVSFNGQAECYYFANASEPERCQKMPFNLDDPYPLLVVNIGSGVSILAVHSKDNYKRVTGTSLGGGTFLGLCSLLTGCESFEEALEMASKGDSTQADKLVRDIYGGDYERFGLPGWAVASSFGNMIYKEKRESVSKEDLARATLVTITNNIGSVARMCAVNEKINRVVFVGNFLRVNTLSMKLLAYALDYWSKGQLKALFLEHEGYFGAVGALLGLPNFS
UniProt Q5JRK9: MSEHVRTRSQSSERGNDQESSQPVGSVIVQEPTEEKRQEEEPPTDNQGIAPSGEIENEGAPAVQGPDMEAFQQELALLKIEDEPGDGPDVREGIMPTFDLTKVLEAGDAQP
UniProt O75665: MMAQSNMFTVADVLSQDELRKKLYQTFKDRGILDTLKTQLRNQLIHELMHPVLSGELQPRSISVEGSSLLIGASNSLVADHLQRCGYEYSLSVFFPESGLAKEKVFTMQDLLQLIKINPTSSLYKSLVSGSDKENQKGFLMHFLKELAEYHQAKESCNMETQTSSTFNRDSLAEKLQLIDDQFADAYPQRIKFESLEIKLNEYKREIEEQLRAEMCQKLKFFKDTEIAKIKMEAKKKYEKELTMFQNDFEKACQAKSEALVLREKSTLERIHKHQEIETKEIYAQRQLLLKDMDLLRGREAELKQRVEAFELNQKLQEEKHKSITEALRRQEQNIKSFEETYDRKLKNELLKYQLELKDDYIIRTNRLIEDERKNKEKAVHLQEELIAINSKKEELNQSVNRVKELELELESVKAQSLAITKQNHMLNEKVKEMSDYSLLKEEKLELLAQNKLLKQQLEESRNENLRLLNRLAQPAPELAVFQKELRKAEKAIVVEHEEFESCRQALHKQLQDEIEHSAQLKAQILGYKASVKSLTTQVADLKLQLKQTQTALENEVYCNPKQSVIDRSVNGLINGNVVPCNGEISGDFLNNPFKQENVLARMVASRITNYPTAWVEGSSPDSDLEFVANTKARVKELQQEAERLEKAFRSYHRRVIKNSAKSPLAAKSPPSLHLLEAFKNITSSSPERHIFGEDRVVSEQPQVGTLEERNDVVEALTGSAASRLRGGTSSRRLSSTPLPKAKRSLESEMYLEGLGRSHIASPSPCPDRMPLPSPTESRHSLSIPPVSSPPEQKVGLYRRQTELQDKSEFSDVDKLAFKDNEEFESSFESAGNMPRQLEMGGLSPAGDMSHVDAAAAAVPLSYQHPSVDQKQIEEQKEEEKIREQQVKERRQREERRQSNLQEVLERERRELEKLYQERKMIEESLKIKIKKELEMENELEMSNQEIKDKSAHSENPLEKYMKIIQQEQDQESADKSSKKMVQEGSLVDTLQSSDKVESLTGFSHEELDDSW
UniProt Q9BWT3: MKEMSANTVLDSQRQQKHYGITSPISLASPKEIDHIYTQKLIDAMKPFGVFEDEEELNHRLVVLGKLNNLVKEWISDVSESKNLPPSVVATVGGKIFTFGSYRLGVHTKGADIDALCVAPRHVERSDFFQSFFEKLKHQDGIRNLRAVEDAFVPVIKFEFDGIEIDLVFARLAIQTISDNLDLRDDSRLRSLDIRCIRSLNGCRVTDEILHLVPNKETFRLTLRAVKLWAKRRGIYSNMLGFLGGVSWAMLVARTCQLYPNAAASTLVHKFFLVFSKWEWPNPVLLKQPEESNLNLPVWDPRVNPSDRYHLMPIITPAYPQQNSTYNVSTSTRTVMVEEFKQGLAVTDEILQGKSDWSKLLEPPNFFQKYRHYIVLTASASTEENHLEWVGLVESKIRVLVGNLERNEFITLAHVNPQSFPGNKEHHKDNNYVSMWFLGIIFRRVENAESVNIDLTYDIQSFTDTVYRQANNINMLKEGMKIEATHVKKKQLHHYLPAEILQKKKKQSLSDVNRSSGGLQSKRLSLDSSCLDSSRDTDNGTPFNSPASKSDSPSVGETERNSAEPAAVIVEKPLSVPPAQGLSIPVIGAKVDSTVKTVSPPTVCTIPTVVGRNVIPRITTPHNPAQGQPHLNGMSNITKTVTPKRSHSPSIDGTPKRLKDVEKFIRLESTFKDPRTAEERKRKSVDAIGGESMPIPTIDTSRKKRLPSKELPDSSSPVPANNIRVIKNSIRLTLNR
UniProt P37198: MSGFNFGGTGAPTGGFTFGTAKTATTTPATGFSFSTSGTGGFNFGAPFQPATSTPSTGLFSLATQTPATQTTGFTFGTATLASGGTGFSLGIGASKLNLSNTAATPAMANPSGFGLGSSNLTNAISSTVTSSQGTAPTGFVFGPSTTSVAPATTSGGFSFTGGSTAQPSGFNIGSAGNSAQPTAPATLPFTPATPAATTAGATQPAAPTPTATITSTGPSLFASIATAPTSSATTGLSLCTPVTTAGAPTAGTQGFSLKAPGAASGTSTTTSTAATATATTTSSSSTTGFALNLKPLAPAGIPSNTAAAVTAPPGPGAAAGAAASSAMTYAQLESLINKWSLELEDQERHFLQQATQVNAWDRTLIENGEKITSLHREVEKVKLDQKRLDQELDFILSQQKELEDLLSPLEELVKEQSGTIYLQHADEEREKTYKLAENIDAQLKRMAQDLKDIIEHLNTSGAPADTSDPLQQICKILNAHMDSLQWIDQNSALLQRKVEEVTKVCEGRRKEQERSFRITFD
UniProt P11940, whole entry, looked up: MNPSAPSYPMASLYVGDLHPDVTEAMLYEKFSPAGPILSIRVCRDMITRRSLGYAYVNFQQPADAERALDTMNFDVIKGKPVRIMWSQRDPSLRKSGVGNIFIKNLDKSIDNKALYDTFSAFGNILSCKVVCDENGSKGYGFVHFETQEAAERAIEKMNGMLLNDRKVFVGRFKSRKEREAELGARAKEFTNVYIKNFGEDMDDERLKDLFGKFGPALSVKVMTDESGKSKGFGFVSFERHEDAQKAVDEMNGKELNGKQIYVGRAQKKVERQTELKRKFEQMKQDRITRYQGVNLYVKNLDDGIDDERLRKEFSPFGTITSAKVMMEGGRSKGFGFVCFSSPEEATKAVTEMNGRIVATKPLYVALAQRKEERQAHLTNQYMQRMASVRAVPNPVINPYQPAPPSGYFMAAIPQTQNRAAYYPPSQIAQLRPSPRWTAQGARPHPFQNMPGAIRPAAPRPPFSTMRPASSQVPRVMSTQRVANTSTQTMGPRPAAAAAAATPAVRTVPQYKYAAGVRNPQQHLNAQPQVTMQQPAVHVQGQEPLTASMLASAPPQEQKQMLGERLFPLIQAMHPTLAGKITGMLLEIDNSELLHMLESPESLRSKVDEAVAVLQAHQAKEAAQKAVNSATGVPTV
UniProt Q96CV9, whole entry, looked up: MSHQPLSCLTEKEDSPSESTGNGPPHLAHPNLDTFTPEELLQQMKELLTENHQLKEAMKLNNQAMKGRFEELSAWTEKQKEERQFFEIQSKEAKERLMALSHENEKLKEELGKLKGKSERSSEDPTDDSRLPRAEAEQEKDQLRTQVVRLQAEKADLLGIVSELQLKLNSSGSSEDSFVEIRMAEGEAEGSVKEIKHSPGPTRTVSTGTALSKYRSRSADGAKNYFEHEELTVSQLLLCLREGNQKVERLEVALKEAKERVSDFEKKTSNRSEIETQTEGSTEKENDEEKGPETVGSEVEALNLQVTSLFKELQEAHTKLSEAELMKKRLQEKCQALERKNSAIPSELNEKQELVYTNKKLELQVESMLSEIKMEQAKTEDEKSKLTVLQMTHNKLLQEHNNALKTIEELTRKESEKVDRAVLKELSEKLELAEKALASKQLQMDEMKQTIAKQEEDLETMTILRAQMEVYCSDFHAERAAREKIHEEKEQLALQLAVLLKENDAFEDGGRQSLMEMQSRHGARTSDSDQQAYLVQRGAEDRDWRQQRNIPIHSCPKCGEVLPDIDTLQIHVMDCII
UniProt Q96HP4: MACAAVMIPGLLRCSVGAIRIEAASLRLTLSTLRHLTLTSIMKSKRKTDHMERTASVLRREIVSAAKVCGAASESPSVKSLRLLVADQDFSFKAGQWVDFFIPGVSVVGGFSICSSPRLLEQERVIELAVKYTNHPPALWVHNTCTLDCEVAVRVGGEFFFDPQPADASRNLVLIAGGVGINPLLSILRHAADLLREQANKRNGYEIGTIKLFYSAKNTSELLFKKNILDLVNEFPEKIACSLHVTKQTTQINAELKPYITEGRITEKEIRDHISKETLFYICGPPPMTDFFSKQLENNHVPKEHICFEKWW

Experiments:
Assay in all cases: log2 fold change, soluble protein after heating vs DMSO (PISA); higher = thermal stabilisation; K562 lysate, 10 uM; active = over 0.2 and 3.5 SD of the protein, either way, in both replicates (recomputed)
vemurafenib = compound: CCCS(=O)(=O)Nc1ccc(F)c(C(=O)c2c[nH]c3ncc(-c4ccc(Cl)cc4)cc23)c1F [vemurafenib]
How it was run: (§1)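 Quantification was by TMTpro 16plex LC-MS/MS with equalised channel sums, applied to the supernatant after 21,000xg for 90 min. Samples were crude K562 extract at 1 mg/mL protein in PBS pH 7.4 with 1 mM MgCl2, treated with 10 μM compound for 30 min, heated for 3 min across 48°C-58°C, pooled and brought to 0.5% NP-40 at 4°C. Values are log-two fold changes in thermal stability relative to solvent controls, from duplicates.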

[1] = compound: CCCS(=O)(=O)Nc1ccc(F)c(C(=O)c2c[nH]c3ncc(Cl)cc23)c1F
How it was run: as §1

barasertib = compound: CCN(CCCOc1ccc2c(Nc3cc(CC(=O)Nc4cccc(F)c4)[nH]n3)ncnc2c1)CCOP(=O)(O)O [barasertib]
How it was run: as §1

[2] = compound: CC[C@@H]1C(=O)N(C)c2cnc(Nc3ccc(C(=O)NC4CCN(C)CC4)cc3OC)nc2N1C1CCCC1
How it was run: as §1

volasertib = compound: CC[C@@H]1C(=O)N(C)c2cnc(Nc3ccc(C(=O)N[C@H]4CC[C@H](N5CCN(CC6CC6)CC5)CC4)cc3OC)nc2N1C(C)C [volasertib]
How it was run: as §1

[3] = compound: CCn1cc(-c2ccnc3[nH]c(-c4cccc(CN(C)C)c4)cc23)c(-c2ccc(NC(=O)N(C)C)cc2)n1
How it was run: as §1

[4] = compound: CN1CCC(CNc2ccc3ncc(-c4cccc(OC(F)(F)F)c4)n3n2)CC1
How it was run: as §1

saracatinib = compound: CN1CCN(CCOc2cc(OC3CCOCC3)c3c(Nc4c(Cl)ccc5c4OCO5)ncnc3c2)CC1 [saracatinib]
How it was run: as §1

sotrastaurin = compound: CN1CCN(c2nc(C3=C(c4c[nH]c5ccccc45)C(=O)NC3=O)c3ccccc3n2)CC1 [sotrastaurin]
How it was run: as §1

alvocidib = compound: CN1CC[C@H](c2c(O)cc(O)c3c(=O)cc(-c4ccccc4Cl)oc23)[C@H](O)C1 [alvocidib]
How it was run: as §1

[5] = compound: CNC(=O)C1=CC=CC=C1NC2=NC(=NC=C2Cl)NC3=C(C=C(C=C3)N4CCOCC4)OC
How it was run: as §1

defactinib = compound: CNC(=O)c1ccc(Nc2ncc(C(F)(F)F)c(NCc3nccnc3N(C)S(C)(=O)=O)n2)cc1 [defactinib]
How it was run: as §1

[6] = compound: CNc1nc(-c2ccc3c(N)n[nH]c3c2)cc(N2C[C@@H](C(=O)NC3CCCCC3)CC[C@H]2C)n1
How it was run: as §1

encorafenib = compound: COC(=O)N[C@@H](C)CNc1nccc(-c2cn(C(C)C)nc2-c2cc(Cl)cc(NS(C)(=O)=O)c2F)n1 [encorafenib]
How it was run: as §1

[7] = compound: COC(=O)[C@H](CCSC)NC(=O)C1=C(C=C(C=C1)NC[C@H](CS)N)C2=CC=CC=C2
How it was run: as §1

alisertib = compound: COc1cc(Nc2ncc3c(n2)-c2ccc(Cl)cc2C(c2c(F)cccc2OC)=NC3)ccc1C(=O)O [alisertib]
How it was run: as §1

[8] = compound: COc1cc2nc(-c3cc(F)ccc3O)nc(N[C@@H]3CNC[C@H]3C(C)(C)O)c2cc1OC
How it was run: as §1

gefitinib = compound: COc1cc2ncnc(Nc3ccc(F)c(Cl)c3)c2cc1OCCCN1CCOCC1 [gefitinib]
How it was run: as §1

[9] = compound: CCn1c(C(=O)N(C2CC2)C2CC2)cc2c3c(ncn3C)c(Nc3cc(C)n(C)n3)nc21
How it was run: as §1

Tubastatin A = compound: CN1CCc2c(c3ccccc3n2Cc2ccc(C(=O)NO)cc2)C1 [Tubastatin A]
How it was run: as §1

Measured: log2 fold change

PALM (UniProt O75781)
inactive: vemurafenib -0.05 | [1] -0.047 | barasertib 0.055 | [2] 0.062 | volasertib -0.019 | [3] -0.061 | [4] 0.101 | saracatinib 0.035 | sotrastaurin 0.048 | alvocidib -0.035 | [5] 0.051 | defactinib 0.078 | [6] 0.026 | encorafenib 0.004 | [7] 0.064 | alisertib 0.088 | [8] 0.056 | gefitinib 0.063

ORMDL1 (UniProt Q9P0S3)
inactive: vemurafenib -0.031 | barasertib 0.024 | [9] 0 | [3] 0.38 | [4] 0.078 | saracatinib 0.181 | sotrastaurin 0.006 | alvocidib -0.052 | Tubastatin A -0.052 | [5] 0.145 | defactinib 0.169 | [6] -0.02 | alisertib -0.067 | gefitinib 0.08

OSTM1 (UniProt Q86WC4)
inactive: vemurafenib -0.006 | [1] -0.025 | barasertib 0.064 | [2] -0.003 | volasertib 0.027 | [9] -0.02 | [3] 0.353 | [4] -0.066 | saracatinib 0.008 | sotrastaurin 0.031 | alvocidib -0.047 | Tubastatin A 0.047 | [5] -0.001 | defactinib -0.104 | [6] -0.044 | encorafenib 0.016 | [7] -0.1 | alisertib -0.038 | [8] 0.009 | gefitinib -0.048

PANK3 (UniProt Q9H999)
inactive: vemurafenib 0.074 | [1] -0.033 | barasertib -0.118 | [2] -0.062 | volasertib -0.172 | [9] -0.044 | [3] -0.014 | [4] 0.023 | saracatinib 0.288 | alvocidib -0.023 | Tubastatin A 0.107 | [5] 0.121 | defactinib -0.028 | [6] 0.081 | encorafenib -0.041 | [7] 0.155 | alisertib 0.113 | [8] 0.23 | gefitinib -0.015

PAGE2B (UniProt Q5JRK9)
inactive: vemurafenib 0.008 | [1] -0.056 | [2] -0.027 | volasertib -0.013 | [9] -0.008 | [3] -0.034 | [4] -0.239 | saracatinib 0.176 | sotrastaurin 0.05 | alvocidib 0.059 | Tubastatin A 0.175 | [5] 0.097 | defactinib 0.253 | [6] 0.072 | encorafenib 0.089 | [7] -0.001 | alisertib 0.053 | [8] -0.091 | gefitinib -0.051

OFD1 (UniProt O75665)
inactive: vemurafenib -0.043 | barasertib -0.285 | [2] -0.209 | [9] 0.048 | [3] 0.083 | [4] -0.157 | saracatinib 0.083 | alvocidib -0.001 | Tubastatin A -0.015 | defactinib -0.01 | [6] 0.092 | encorafenib 0.181 | [7] -0.218 | alisertib 0.286 | gefitinib -0.127

PAPOLG (UniProt Q9BWT3)
inactive: vemurafenib -0.176 | [2] -0.04 | [9] -0.02 | [3] -0.013 | [4] -0.049 | saracatinib -0.235 | sotrastaurin 0.031 | alvocidib -0.008 | Tubastatin A 0.16 | [5] 0.003 | defactinib -0.025 | [6] 0.085 | encorafenib 0.063 | [7] 0.098 | alisertib -0.035 | gefitinib 0.062

NUP62 (UniProt P37198)
inactive: vemurafenib -0.022 | [1] 0.012 | barasertib 0.1 | [2] 0.028 | volasertib -0.007 | [9] 0.024 | [3] -0.045 | [4] 0.03 | saracatinib 0.03 | sotrastaurin -0.013 | alvocidib -0.047 | Tubastatin A 0.058 | [5] 0.001 | defactinib 0.029 | [6] 0.042 | encorafenib 0.066 | [7] -0.051 | alisertib 0.031 | [8] -0.014 | gefitinib -0.011

PABPC1 (UniProt P11940)
inactive: vemurafenib -0.027 | [1] -0.012 | barasertib 0.007 | [2] -0.075 | volasertib -0.018 | [9] 0.016 | [3] 0.13 | [4] -0.163 | saracatinib 0.013 | sotrastaurin 0.007 | alvocidib 0.051 | Tubastatin A -0.004 | [5] -0.037 | defactinib -0.004 | [6] -0.059 | encorafenib -0.006 | [7] -0.038 | alisertib -0.009 | [8] -0.009 | gefitinib 0.022

PACSIN3 (UniProt Q9UKS6)
inactive: vemurafenib -0.199 | [1] 0.012 | barasertib 0.269 | [2] -0.199 | volasertib -0.01 | [9] 0.007 | [3] -0.046 | [4] 0.079 | saracatinib -0.034 | sotrastaurin 0.004 | alvocidib 0.081 | Tubastatin A 0.022 | [5] -0.039 | defactinib -0.087 | [6] -0.101 | encorafenib -0.045 | [7] -0.054 | alisertib -0.056 | [8] -0.013 | gefitinib 0.029

OPTN (UniProt Q96CV9)
inactive: vemurafenib -0.001 | [1] 0.031 | barasertib 0.021 | [2] 0.043 | volasertib -0.004 | [9] -0.024 | [3] -0.006 | [4] 0.009 | saracatinib 0.072 | sotrastaurin 0.025 | alvocidib 0.012 | Tubastatin A 0.024 | [5] -0.002 | defactinib 0.082 | [6] 0.036 | encorafenib 0.022 | [7] -0.047 | alisertib -0.049 | [8] -0.007 | gefitinib 0.003

Quoted at random: 2 entries already listed, in no set order.
ORMDL1 (UniProt Q9P0S3)
inactive: vemurafenib -0.031 | barasertib 0.024 | [9] 0 | [3] 0.38 | [4] 0.078 | saracatinib 0.181 | sotrastaurin 0.006 | alvocidib -0.052 | Tubastatin A -0.052 | [5] 0.145 | defactinib 0.169 | [6] -0.02 | alisertib -0.067 | gefitinib 0.08

NUP62 (UniProt P37198)
inactive: vemurafenib -0.022 | [1] 0.012 | barasertib 0.1 | [2] 0.028 | volasertib -0.007 | [9] 0.024 | [3] -0.045 | [4] 0.03 | saracatinib 0.03 | sotrastaurin -0.013 | alvocidib -0.047 | Tubastatin A 0.058 | [5] 0.001 | defactinib 0.029 | [6] 0.042 | encorafenib 0.066 | [7] -0.051 | alisertib 0.031 | [8] -0.014 | gefitinib -0.011

Continuation.

OXNAD1 (UniProt Q96HP4)
inactive: vemurafenib -0.031 | [1] -0.003 | barasertib 0.05 | [2] -0.061 | volasertib -0.054 | [9] 0.014 | [3] -0.017 | [4] -0.056 | saracatinib 0.018 | sotrastaurin 0.062 | alvocidib 0.002 | Tubastatin A -0.067 | [5] -0.095 | defactinib 0.018 | [6] -0.057 | encorafenib 0.029 | [7] 0.129 | alisertib 0.017 | [8] -0.023 | gefitinib -0.005
